No constants are given. Whether binding was seen depends on the method and setting. In cells and extracts the contact can be indirect. These calls come from enrichment with a bait or labelling near it, and not all partners need be listed.
Target: HA-tagged EBNA2 (wt) (Epstein-Barr virus) (UniProt P12978)
Assay: affinity purification with mass spectrometry

Amino acid sequences for entries named in this document (tags omitted).
UniProt P12978, whole entry: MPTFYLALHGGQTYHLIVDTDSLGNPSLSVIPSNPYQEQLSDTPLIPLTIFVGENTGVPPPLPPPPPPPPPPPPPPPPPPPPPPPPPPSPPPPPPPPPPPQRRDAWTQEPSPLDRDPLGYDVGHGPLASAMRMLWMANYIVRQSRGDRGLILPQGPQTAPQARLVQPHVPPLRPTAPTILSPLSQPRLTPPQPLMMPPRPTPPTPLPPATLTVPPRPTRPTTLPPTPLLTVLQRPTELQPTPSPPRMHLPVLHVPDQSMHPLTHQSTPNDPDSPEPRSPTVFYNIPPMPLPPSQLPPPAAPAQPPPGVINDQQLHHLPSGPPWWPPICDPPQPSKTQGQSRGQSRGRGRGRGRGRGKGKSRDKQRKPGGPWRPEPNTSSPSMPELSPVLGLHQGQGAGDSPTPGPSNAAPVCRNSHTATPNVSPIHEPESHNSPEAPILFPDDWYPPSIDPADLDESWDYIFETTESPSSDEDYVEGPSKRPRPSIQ

Question: How did the binding turn out when CBF1/RBPJ (from UniProt Q06330 1-500) was run?
Answer: Its binding is “binds”.
